The structures given here were assigned with low confidence; some may be wrong.
Molecular target: Human neutrophil elastase (Homo sapiens, UniProt P08246)
Test: Human Neutrophil Elastase Assay
Format: biochemical
Conditions: substrate MeOSuc-Ala-Ala-Pro-Val-AMC 250 μM, 15 min preincubation, 60 min incubation at room temperature, pH 7.5

Sequences of proteins named here, by UniProt entry; tags and fusion partners are left off. Residues count along the entry.
UniProt P08246, 30-267 limits assumed: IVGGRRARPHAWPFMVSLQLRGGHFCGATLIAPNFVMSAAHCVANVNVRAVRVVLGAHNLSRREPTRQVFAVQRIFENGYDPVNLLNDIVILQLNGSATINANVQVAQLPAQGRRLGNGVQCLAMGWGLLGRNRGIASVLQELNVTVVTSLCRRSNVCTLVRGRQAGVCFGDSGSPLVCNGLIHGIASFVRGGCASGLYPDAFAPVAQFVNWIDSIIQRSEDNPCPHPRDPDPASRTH

Row | Compound | IC50 [nM]
1 | Cc1c(-c2cccc(C(F)(F)F)c2)c(=O)c(C(=O)NC(C)(C)C#N)cn1C(C)c1ccc(C#N)cn1 (centres unmarked) | 139
2 | Cc1c(-c2cccc(C(F)(F)F)c2)c(=O)c(C(=O)NC2COC2)cn1C(C)c1ccc(C#N)cn1 (centres unmarked) | 26.4

Compounds with a lower IC50, results first:

Row | IC50 [nM] | Compound
3 | 5.7 | Cc1noc(CNC(=O)c2cn(C(C)c3ccc(C#N)cc3)c(C)c(-c3ccnc(C(F)(F)F)c3)c2=O)n1 (single isomer, unassigned) [Example 9.5]
4 | 13.4 | Cc1nc(CNC(=O)c2cn(C(C)c3ccc(C#N)cn3)c(C)c(-c3cccc(C(F)(F)F)c3)c2=O)no1 (centres unmarked)
5 | 13.1 | Cc1c(-c2cccc(C(F)(F)F)c2)c(=O)c(C(=O)NCc2cnn(C)c2)cn1C(C)c1ccc(C#N)cn1 (centres unmarked)

— USRE46630E1, “Substituted 4-pyridones and their use as inhibitors of neutrophil elastase activity” (Boehringer Ingelheim International GmbH, priority 2012, dated 2017)
